No constants are given. Whether binding was seen depends on the method and setting. In cells and extracts the contact can be indirect. Tags and fused reporters may be left off the sequences shown.

One substance from paper PMC11852966 can be followed below.

The target in the experiment is T1, KRT9-Myc (human (cDNA from HEK293T mRNA)) (UniProt P35527).
T1 sequence: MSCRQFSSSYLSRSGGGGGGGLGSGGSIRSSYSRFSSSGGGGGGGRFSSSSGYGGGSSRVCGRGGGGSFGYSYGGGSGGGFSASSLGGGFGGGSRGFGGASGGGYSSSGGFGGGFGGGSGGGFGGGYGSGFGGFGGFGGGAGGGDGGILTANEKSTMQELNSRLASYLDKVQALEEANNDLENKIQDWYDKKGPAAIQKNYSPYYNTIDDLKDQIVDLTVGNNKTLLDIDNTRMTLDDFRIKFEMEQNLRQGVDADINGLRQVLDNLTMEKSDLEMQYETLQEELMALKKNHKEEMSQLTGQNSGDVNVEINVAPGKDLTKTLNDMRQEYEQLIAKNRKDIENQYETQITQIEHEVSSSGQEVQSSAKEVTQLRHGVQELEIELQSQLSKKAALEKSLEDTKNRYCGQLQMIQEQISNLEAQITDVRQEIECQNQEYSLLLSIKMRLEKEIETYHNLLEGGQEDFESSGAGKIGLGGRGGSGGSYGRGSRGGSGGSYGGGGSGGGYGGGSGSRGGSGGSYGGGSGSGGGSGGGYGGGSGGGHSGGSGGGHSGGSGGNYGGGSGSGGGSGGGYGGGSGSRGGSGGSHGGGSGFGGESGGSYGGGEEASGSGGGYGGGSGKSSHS
The experiment is described as follows: co-IP; […] (20 mM Tris-HCl pH 7.5, 100 mM NaCl, 0.1 mM EDTA, 0.05% Tween-20); […].

GBP5-Flag △C (domain or fragment): the binding result was “no binding”.
